These are yes or no findings as the source states them, for the method shown. Binding seen in cells or lysates may run through a third protein. Here binding means that the protein was enriched with, or labelled near, the bait; the list need not be complete.
Molecular target: SIRT7 (human (endogenous in HaCaT)) (UniProt Q9NRC8)
Assay: affinity purification with mass spectrometry; immunoprecipitation with SIRT7 antibody against control IgG from keratinocytes, control and IR-treated; SDS-PAGE, trypsin digest, orbitrap LC-MS/MS

The chains behind the UniProt entries cited, without tags or fusion partners.
UniProt Q9NRC8: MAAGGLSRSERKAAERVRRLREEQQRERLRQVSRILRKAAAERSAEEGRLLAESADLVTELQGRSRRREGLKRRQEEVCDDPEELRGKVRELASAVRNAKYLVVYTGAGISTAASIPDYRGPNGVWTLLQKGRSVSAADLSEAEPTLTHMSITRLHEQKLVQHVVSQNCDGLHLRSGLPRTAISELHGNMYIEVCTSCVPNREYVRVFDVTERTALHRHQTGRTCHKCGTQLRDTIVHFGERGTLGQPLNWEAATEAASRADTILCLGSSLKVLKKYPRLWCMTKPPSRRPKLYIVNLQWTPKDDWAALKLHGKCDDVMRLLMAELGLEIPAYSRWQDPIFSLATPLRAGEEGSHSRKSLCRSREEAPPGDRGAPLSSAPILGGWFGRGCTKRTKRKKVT
UniProt P09429: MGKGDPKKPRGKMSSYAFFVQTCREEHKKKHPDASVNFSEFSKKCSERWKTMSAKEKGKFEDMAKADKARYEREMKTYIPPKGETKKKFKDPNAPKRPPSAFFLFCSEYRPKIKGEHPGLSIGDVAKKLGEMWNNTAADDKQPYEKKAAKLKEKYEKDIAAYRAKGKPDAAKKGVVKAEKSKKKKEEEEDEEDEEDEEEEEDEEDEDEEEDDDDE

## High-mobility group box 1 (HMGB1) (from UniProt P09429 1-215)
  binding: binds

From publication PMC9805450
